# The list shows a part of the results.
# Key:
# Experiment in all cases: glycan array binding signal (z-score within array); higher = stronger binding
# Details in all cases: glycan notation: IUPAC condensed, linker removed
# [1] = molecular target: Gal(b1-4)GlcNAc(b1-3)Gal(b1-4)GlcNAc(b1-2)[Gal(b1-4)GlcNAc(b1-3)Gal(b1-4)GlcNAc(b1-6)]Man(a1-6)[Gal(b1-4)GlcNAc(b1-3)Gal(b1-4)GlcNAc(b1-2)Man(a1-3)]Man(b1-4)GlcNAc(b1-4)GlcNAc
# Outline: (§1)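 The Consortium for Functional Glycomics database supplied 3228 glycan arrays, of which those lacking an available protein sequence were dropped. The binding signal, a within-array Z-score, was averaged across arrays of the same protein sequence and across linkers. Negative scores can be read as non-binding.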
# [2] = molecular target: Gal(b1-4)GlcNAc(b1-3)Gal(b1-4)GlcNAc(b1-2)[Gal(b1-4)GlcNAc(b1-3)Gal(b1-4)GlcNAc(b1-6)]Man(a1-6)[Gal(b1-4)GlcNAc(b1-3)Gal(b1-4)GlcNAc(b1-2)Man(a1-3)]Man(b1-4)GlcNAc(b1-4)[Fuc(a1-6)]GlcNAc
# Outline: as §1
# [3] = molecular target: Gal(b1-4)GlcNAc(b1-3)Gal(b1-4)GlcNAc(b1-3)Gal(b1-4)GlcNAc
# Outline: as §1
# [4] = molecular target: Gal(b1-4)GlcNAc(b1-3)Gal(b1-4)GlcNAc(b1-3)Gal(b1-4)GlcNAc(b1-2)Man(a1-3)[Gal(b1-4)GlcNAc(b1-3)Gal(b1-4)GlcNAc(b1-3)Gal(b1-4)GlcNAc(b1-2)Man(a1-6)]Man(b1-4)GlcNAc(b1-4)GlcNAc
# Outline: as §1
# [5] = molecular target: Gal(b1-4)GlcNAc(b1-3)Gal(b1-4)GlcNAc(b1-3)Gal(b1-4)GlcNAc(b1-2)Man(a1-3)[Gal(b1-4)GlcNAc(b1-3)Gal(b1-4)GlcNAc(b1-3)Gal(b1-4)GlcNAc(b1-2)Man(a1-6)]Man(b1-4)GlcNAc(b1-4)[Fuc(a1-6)]GlcNAc
# Outline: as §1
# [6] = molecular target: Gal(b1-4)GlcNAc(b1-3)Gal(b1-4)GlcNAc(b1-3)Gal(b1-4)GlcNAc(b1-2)[Gal(b1-4)GlcNAc(b1-3)Gal(b1-4)GlcNAc(b1-3)Gal(b1-4)GlcNAc(b1-6)]Man(a1-6)[Gal(b1-4)GlcNAc(b1-3)Gal(b1-4)GlcNAc(b1-3)Gal(b1-4)GlcNAc(b1-2)Man(a1-3)]Man(b1-4)GlcNAc(b1-4)[Fuc(a1-6)]GlcNAc
# Outline: as §1
# [7] = molecular target: Gal(b1-4)GlcNAc(b1-3)Gal(b1-4)GlcNAc(b1-3)Gal(b1-4)GlcNAc(b1-3)Gal(b1-4)GlcNAc(b1-2)Man(a1-3)[Gal(b1-4)GlcNAc(b1-3)Gal(b1-4)GlcNAc(b1-3)Gal(b1-4)GlcNAc(b1-3)Gal(b1-4)GlcNAc(b1-2)Man(a1-6)]Man(b1-4)GlcNAc(b1-4)GlcNAc
# Outline: as §1
# [8] = molecular target: Gal(b1-4)GlcNAc(b1-3)Gal(b1-4)GlcNAc(b1-3)Gal(b1-4)GlcNAc(b1-3)Gal(b1-4)GlcNAc(b1-2)Man(a1-3)[Gal(b1-4)GlcNAc(b1-3)Gal(b1-4)GlcNAc(b1-3)Gal(b1-4)GlcNAc(b1-3)Gal(b1-4)GlcNAc(b1-2)Man(a1-6)]Man(b1-4)GlcNAc(b1-4)[Fuc(a1-6)]GlcNAc
# Outline: as §1
# [9] = molecular target: Gal(b1-4)GlcNAc(b1-3)Gal(b1-4)GlcNAc(b1-3)Gal(b1-4)GlcNAc(b1-3)Gal(b1-4)GlcNAc(b1-2)[Gal(b1-4)GlcNAc(b1-3)Gal(b1-4)GlcNAc(b1-3)Gal(b1-4)GlcNAc(b1-3)Gal(b1-4)GlcNAc(b1-6)]Man(a1-6)[Gal(b1-4)GlcNAc(b1-3)Gal(b1-4)GlcNAc(b1-3)Gal(b1-4)GlcNAc(b1-3)Gal(b1-4)GlcNAc(b1-2)Man(a1-3)]Man(b1-4)GlcNAc(b1-4)[Fuc(a1-6)]GlcNAc
# Outline: as §1
# [10] = molecular target: Gal(b1-4)GlcNAc(b1-3)Gal(b1-4)GlcNAc(b1-3)Gal(b1-4)GlcNAc(b1-3)Gal(b1-4)GlcNAc(b1-3)Gal(b1-4)GlcNAc(b1-2)Man(a1-3)[Gal(b1-4)GlcNAc(b1-3)Gal(b1-4)GlcNAc(b1-3)Gal(b1-4)GlcNAc(b1-3)Gal(b1-4)GlcNAc(b1-3)Gal(b1-4)GlcNAc(b1-2)Man(a1-6)]Man(b1-4)GlcNAc(b1-4)GlcNAc
# Outline: as §1
# [11] = molecular target: Gal(b1-4)GlcNAc(b1-3)Gal(b1-4)GlcNAc(b1-3)Gal(b1-4)GlcNAc(b1-3)Gal(b1-4)GlcNAc(b1-3)Gal(b1-4)GlcNAc(b1-2)Man(a1-3)[Gal(b1-4)GlcNAc(b1-3)Gal(b1-4)GlcNAc(b1-3)Gal(b1-4)GlcNAc(b1-3)Gal(b1-4)GlcNAc(b1-3)Gal(b1-4)GlcNAc(b1-2)Man(a1-6)]Man(b1-4)GlcNAc(b1-4)[Fuc(a1-6)]GlcNAc
# Outline: as §1
# [12] = molecular target: Gal(b1-4)GlcNAc(b1-3)Gal(b1-4)GlcNAc(b1-3)Gal(b1-4)GlcNAc(b1-3)Gal(b1-4)GlcNAc(b1-3)Gal(b1-4)GlcNAc(b1-2)[Gal(b1-4)GlcNAc(b1-3)Gal(b1-4)GlcNAc(b1-3)Gal(b1-4)GlcNAc(b1-3)Gal(b1-4)GlcNAc(b1-3)Gal(b1-4)GlcNAc(b1-6)]Man(a1-6)[Gal(b1-4)GlcNAc(b1-3)Gal(b1-4)GlcNAc(b1-3)Gal(b1-4)GlcNAc(b1-3)Gal(b1-4)GlcNAc(b1-3)Gal(b1-4)GlcNAc(b1-2)Man(a1-3)]Man(b1-4)GlcNAc(b1-4)[Fuc(a1-6)]GlcNAc
# Outline: as §1
# [13] = molecular target: Gal(b1-4)GlcNAc(b1-3)Gal(b1-4)GlcNAc(b1-3)Gal(b1-4)GlcNAc(b1-3)Gal(b1-4)GlcNAc(b1-3)Gal(b1-4)GlcNAc(b1-3)Gal(b1-4)GlcNAc(b1-2)Man(a1-3)[Gal(b1-4)GlcNAc(b1-3)Gal(b1-4)GlcNAc(b1-3)Gal(b1-4)GlcNAc(b1-3)Gal(b1-4)GlcNAc(b1-3)Gal(b1-4)GlcNAc(b1-3)Gal(b1-4)GlcNAc(b1-2)Man(a1-6)]Man(b1-4)GlcNAc(b1-4)GlcNAc
# Outline: as §1
# [14] = molecular target: Gal(b1-4)GlcNAc(b1-3)Gal(b1-4)GlcNAc(b1-3)GalNAc
# Outline: as §1
# [15] = molecular target: Gal(b1-4)GlcNAc(b1-3)Gal(b1-4)GlcNAc(b1-3)[Gal(b1-4)GlcNAc(b1-3)Gal(b1-4)GlcNAc(b1-6)]GalNAc
# Outline: as §1
# [16] = molecular target: Gal(b1-4)GlcNAc(b1-3)Gal(b1-4)GlcNAc(b1-6)[Gal(b1-3)]GalNAc
# Outline: as §1
# [17] = molecular target: Gal(b1-4)GlcNAc(b1-3)Gal(b1-4)[Fuc(a1-3)]GlcNAc(b1-3)Gal(b1-4)[Fuc(a1-3)]GlcNAc
# Outline: as §1
# [18] = molecular target: Gal(b1-4)GlcNAc(b1-3)GalNAc
# Outline: as §1
# [19] = molecular target: Gal(b1-4)GlcNAc(b1-3)[Fuc(a1-3)GlcNAc(b1-6)]Gal(b1-4)Glc
# Outline: as §1
# [20] = molecular target: Gal(b1-4)GlcNAc(b1-3)[Gal(b1-4)GlcNAc(b1-6)]Gal(b1-4)GlcNAc
# Outline: as §1
# [21] = molecular target: Gal(b1-4)GlcNAc(b1-3)[GlcNAc(b1-6)]Gal(b1-4)GlcNAc
# Outline: as §1
# [22] = molecular target: Gal(b1-4)GlcNAc(b1-6)Gal(b1-4)GlcNAc
# Outline: as §1
# [23] = molecular target: Gal(b1-4)GlcNAc(b1-6)GalNAc
# Outline: as §1
# [24] = molecular target: Gal(b1-4)GlcNAc(b1-6)[Gal(b1-3)]GalNAc
# Outline: as §1
# [25] = molecular target: Gal(b1-4)GlcNAc(b1-6)[Gal(b1-4)GlcNAc(b1-3)]GalNAc
# Outline: as §1
# Gal(b1-4)GlcNAc6P = molecular target: Gal(b1-4)GlcNAc6P
# Outline: as §1
# Gal(b1-6)Gal = molecular target: Gal(b1-6)Gal
# Outline: as §1
# Gal3S(b1-3)GalNAc = molecular target: Gal3S(b1-3)GalNAc
# Outline: as §1
# Gal3S(b1-3)GlcNAc = molecular target: Gal3S(b1-3)GlcNAc
# Outline: as §1
# [26] = molecular target: Gal3S(b1-3)[Fuc(a1-4)]GlcNAc
# Outline: as §1
# Gal3S(b1-4)Glc = molecular target: Gal3S(b1-4)Glc
# Outline: as §1
# Gal3S(b1-4)Glc6S = molecular target: Gal3S(b1-4)Glc6S
# Outline: as §1
# Gal3S(b1-4)GlcNAc = molecular target: Gal3S(b1-4)GlcNAc
# Outline: as §1
# [27] = molecular target: Gal3S(b1-4)[Fuc(a1-3)]Glc6S
# Outline: as §1
# [28] = molecular target: Gal3S(b1-4)[Fuc(a1-3)]GlcNAc
# Outline: as §1
# [29] = molecular target: Gal3S(b1-4)[Fuc(a1-3)]GlcNAc6S
# Outline: as §1
# Gal3S4S(b1-4)GlcNAc = molecular target: Gal3S4S(b1-4)GlcNAc
# Outline: as §1
binder,measurement,setting,value
"SspB A3vp1 (Streptococcus gordonii), Q54186 (protein) MTNEADYQAKLAAYQTELARVQKANADAKATYEKAVEDNKAKNAAIKAENEEIKQRNAVAKTDYEAKLAKYEADLAKYKKEFAAYTAALAEAESKKKQDGYLSEPRSQSLNFKSEPNAIRTIDSSVHQYGQQELDALVKSWGISPTNPDRKKSRAYSYFNAINSNNTYAKLVLEKDKPVDVTYTGLKNSSFNGKKISKVVYTYTLKETGFNDGTKMTMFASSDPTVTAWYNDYFTSTNINVKVKFYDEEGQLMNLTGGLVNFSSLNRGNGSGAIDKDAIESVRNFNGRYIPISGSSIKIHENNSAYADSSNAEKSLGARWNTSEWDTTSSPNNWYGAIVGEITQSEISFNMASSKSGNIWFAFNSNINAIGVPTKPVAPTAPTQPMYETEKPLEPAPVAPSYENEPTPPVKTPDQPEPSKPAAALEHHHHHH",glycan array binding signal (z-score),[1],3.16
same,glycan array binding signal (z-score),[2],3.01
same,glycan array binding signal (z-score),[3],0.261
same,glycan array binding signal (z-score),[4],2.06
same,glycan array binding signal (z-score),[5],3.73
same,glycan array binding signal (z-score),[6],2.45
same,glycan array binding signal (z-score),[7],3.61
same,glycan array binding signal (z-score),[8],2.13
same,glycan array binding signal (z-score),[9],2.31
same,glycan array binding signal (z-score),[10],3.36
same,glycan array binding signal (z-score),[11],3.38
same,glycan array binding signal (z-score),[12],2
same,glycan array binding signal (z-score),[13],1.69
same,glycan array binding signal (z-score),[14],0.825
same,glycan array binding signal (z-score),[15],1.46
same,glycan array binding signal (z-score),[16],2.1
same,glycan array binding signal (z-score),[17],0.156
same,glycan array binding signal (z-score),[18],-0.052
same,glycan array binding signal (z-score),[19],-0.392
same,glycan array binding signal (z-score),[20],-0.309
same,glycan array binding signal (z-score),[21],-0.081
same,glycan array binding signal (z-score),[22],-0.324
same,glycan array binding signal (z-score),[23],-0.083
same,glycan array binding signal (z-score),[24],0.609
same,glycan array binding signal (z-score),[25],0.076
same,glycan array binding signal (z-score),Gal(b1-4)GlcNAc6P,0.545
same,glycan array binding signal (z-score),Gal(b1-6)Gal,0.959
same,glycan array binding signal (z-score),Gal3S(b1-3)GalNAc,0.06
same,glycan array binding signal (z-score),Gal3S(b1-3)GlcNAc,-0.649
same,glycan array binding signal (z-score),[26],0.041
same,glycan array binding signal (z-score),Gal3S(b1-4)Glc,0.262
same,glycan array binding signal (z-score),Gal3S(b1-4)Glc6S,-0.174
same,glycan array binding signal (z-score),Gal3S(b1-4)GlcNAc,-0.535
same,glycan array binding signal (z-score),[27],2.5
same,glycan array binding signal (z-score),[28],-0.171
same,glycan array binding signal (z-score),[29],-0.117
same,glycan array binding signal (z-score),Gal3S4S(b1-4)GlcNAc,-0.13

# Not a retest: an excerpt of the list.
binder,measurement,setting,value
"SspB A3vp1 (Streptococcus gordonii), Q54186 (protein) MTNEADYQAKLAAYQTELARVQKANADAKATYEKAVEDNKAKNAAIKAENEEIKQRNAVAKTDYEAKLAKYEADLAKYKKEFAAYTAALAEAESKKKQDGYLSEPRSQSLNFKSEPNAIRTIDSSVHQYGQQELDALVKSWGISPTNPDRKKSRAYSYFNAINSNNTYAKLVLEKDKPVDVTYTGLKNSSFNGKKISKVVYTYTLKETGFNDGTKMTMFASSDPTVTAWYNDYFTSTNINVKVKFYDEEGQLMNLTGGLVNFSSLNRGNGSGAIDKDAIESVRNFNGRYIPISGSSIKIHENNSAYADSSNAEKSLGARWNTSEWDTTSSPNNWYGAIVGEITQSEISFNMASSKSGNIWFAFNSNINAIGVPTKPVAPTAPTQPMYETEKPLEPAPVAPSYENEPTPPVKTPDQPEPSKPAAALEHHHHHH",glycan array binding signal (z-score),[23],-0.083
same,glycan array binding signal (z-score),[24],0.609
same,glycan array binding signal (z-score),[25],0.076
same,glycan array binding signal (z-score),Gal(b1-4)GlcNAc6P,0.545
same,glycan array binding signal (z-score),Gal(b1-6)Gal,0.959
same,glycan array binding signal (z-score),Gal3S(b1-3)GalNAc,0.06
same,glycan array binding signal (z-score),Gal3S(b1-3)GlcNAc,-0.649

# Source: the supplement of paper PMC8728848
